Some of the results follow.
Compound: CC1Cc2ccccc2N1C(=O)C1CCCN(C1)C(=O)CCl (mixture of isomers) [TRIM25 ligand 11 (diastereomer mixture)]
Test: probe-labelled cysteine peptide fold change vs DMSO (competition) (log2 fold change); higher = less target engagement (more negative = stronger competition)
Settings: THP-1, incubation time: 4 h
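Further: competitive chemoproteomic profiling in live THP-1 cells with an iodoacetamide desthiobiotin (IA-DTB) probe, comparing probe-labelled peptide intensities in compound-treated cells against DMSO-treated controls.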

Row | Target | probe-labelled cysteine peptide fold change (10 µM) | probe-labelled cysteine peptide fold change (50 µM)
1 | ILK_Q13418_346_FSFQCPGR (UniProt Q13418) | 0.00155 | -0.0756
2 | IDH2_P48735_402_VCVETVESGAMTK (UniProt P48735) | 0.0174 | 0.109
3 | IDH1_O75874_73_CATITPDEK (UniProt O75874) | -0.0431 | -0.0307
4 | IDH2_P48735_418_DLAGCIHGLSNVK (UniProt P48735) | 0.0586 | 0.00231
5 | ILF2_Q12905_291_CLQILAAGLFLPGSVGITDPCESGNFR (UniProt Q12905) | -0.0218 | 0.268
6 | ILKAP_Q9H0C8_135_EEMQDAHVILNDITEECRPPSSLITR (UniProt Q9H0C8) | 0.0678 | -0.0787
7 | HUS1_O60921_200_IETELVCVTTHFK (UniProt O60921) | 0.0597 | 0.084
8 | IGF2R_P11717_174_EVPCYVFDEELRK (UniProt P11717) | -0.048 | -0.0794
9 | IL18_Q14116_74_NLNDQVLFIDQGNRPLFEDMTDSDCRDNAPR (UniProt Q14116) | -0.0363 | -0.0834
10 | INPP5B_P32019_475_FQFHNTSICVVNSHLAAHIEEYER (UniProt P32019) | 0.169 | 0.191
11 | IGF2R_P11717_731_ATLITFLCDR (UniProt P11717) | 0.165 | 0.416
12 | IARS_P41252_526_ISEVFDCWFESGSMPYAQVHYPFENKR (UniProt P41252) | 0.0141 | -0.0337
13 | ILF3_Q12906_295_VLECLASGIVMPDGSGIYDPCEK (UniProt Q12906) | 0.237 | -0.0431
14 | HYOU1_Q9Y4L1_352_VEFEELCADLFER (UniProt Q9Y4L1) | 0.118 | -0.106
15 | IKBKG_Q9Y6K9_417_CQYQAPDMDTLQIHVMECIE (UniProt Q9Y6K9) | -0.113 | -0.374
16 | IK_Q13123_263_ADCPTMEAQTTLTTNDIVISK (UniProt Q13123) | -0.0926 | -0.184
17 | IFT80_Q9P2H3_210_VDWNSVNDLILSAGEDCK (UniProt Q9P2H3) | 0.181 | 0.161
18 | IFT172_Q9UG01_1686_ALPCLITGYPILR (UniProt Q9UG01) | -0.0633 | 0.191
19 | ILVBL_A1L0T0_354_ADVIVLAGTVCDFR (UniProt A1L0T0) | 0.187 | 0.139
20 | IL1RAP_Q9NPH3_332_SYVCHAR (UniProt Q9NPH3) | 0.0484 | 0.0314
21 | IMPDH2_P12268_173_EEEHDCFLEEIMTK (UniProt P12268) | 0.174 | 0.0149
22 | IL1RAP_Q9NPH3_24_CDDWGLDTMR (UniProt Q9NPH3) | 0.0294 | -0.0106
23 | IGFBP4_P22692_215_QCHPALDGQR (UniProt P22692) | -0.127 | -0.418
24 | INF2_Q27J81_971_QEEVCVIDALLADIR (UniProt Q27J81) | 0.00529 | -0.0623
25 | ING2_Q9H160_26_LLTCYVQDYLECVESLPHDMQR (UniProt Q9H160) | -0.475 | -0.164
26 | INO80E_Q8NBZ0_31_FLIYEHECFQEELRK (UniProt Q8NBZ0) | -0.0187 | 0.0537
27 | INO80_Q9ULG1_1049_QCLLNGAPELAADWLNRR (UniProt Q9ULG1) | -0.0908 | -0.0701

Row | Target | probe-labelled cysteine peptide fold change (10 µM) | probe-labelled cysteine peptide fold change (50 µM)
28 | IMPACT_Q9P2X3_137+145_KKTEEEDVECEDDLILACQPESSLK (UniProt Q9P2X3) | -0.0781 | -0.239
29 | ILKAP_Q9H0C8_135_GEREEMQDAHVILNDITEECRPPSSLITR (UniProt Q9H0C8) | -0.0165 | -0.168
30 | IGF2BP2_Q9Y6M1_255_PVTIHATPEGTSEACR (UniProt Q9Y6M1) | 0.153 | 0.107
31 | IGBP1_P78318_118_EHFINYLTQCHCYHVAEFELPK (UniProt P78318) | 0.195 | 0.284
32 | IGF2R_P11717_1598_DGSPCPSK (UniProt P11717) | -0.0354 | 0.0576
33 | INPP5B_P32019_129_ACPGFDSATR (UniProt P32019) | 0.0835 | 0.0482
34 | IFT74_Q96LB3_400_AQIEANIVALLEHCSR (UniProt Q96LB3) | -0.0935 | -0.0548
35 | HUWE1_Q7Z6Z7_29_VCNDEQLLLELQQIK (UniProt Q7Z6Z7) | 0.287 | 0.0122
36 | HUWE1_Q7Z6Z7_3361_ETNCESDRER (UniProt Q7Z6Z7) | -0.138 | -0.153
37 | HUWE1_Q7Z6Z7_612_EVLGSLPNVFSALCLNAR (UniProt Q7Z6Z7) | 0.171 | 0.0786
38 | IDI1_Q13907_39_NCHLNENIEK (UniProt Q13907) | 0.0227 | -0.0977
39 | IMPA1_P29218_8_ADPWQECMDYAVTLAR (UniProt P29218) | -0.265 | -0.242
40 | IFT88_Q13099_162_EVNELVEESCIANSCGDLK (UniProt Q13099) | -0.0236 | -0.195
41 | IGF2R_P11717_288_EEAGKLDFCDGHSPAVTITFVCPSER (UniProt P11717) | -0.0837 | 0.0263
42 | IGF2BP2_Q9Y6M1_255_KENSGAAEKPVTIHATPEGTSEACR (UniProt Q9Y6M1) | -0.152 | -0.066
43 | IFIT2_P09913_140_IESPELDCEEGWTR (UniProt P09913) | -0.186 | -0.263
44 | ILF2_Q12905_37_GGPGGGFRPFVPHIPFDFYLCEMAFPR (UniProt Q12905) | -0.147 | -0.158
45 | IL17RA_Q96F46-2_303_HSATVSCPEMPDTPEPIPGPGSEK (UniProt Q96F46) | -0.0703 | 0.116
46 | IFI16_Q16666_737_LTCFELAPK (UniProt Q16666) | -0.072 | -0.0658
47 | IFRD2_Q12894_409_AVLHSVEGGECEEEIVR (UniProt Q12894) | 0.202 | 0.0889
48 | HUWE1_Q7Z6Z7_2106_EDCSVLAFVLDHLLPHTQNAEDK (UniProt Q7Z6Z7) | -0.0582 | 0.269
49 | IGF2R_P11717_1975_GCDVTFEWK (UniProt P11717) | -0.0246 | 0.00792
50 | IFT81_Q8WYA0_569_YHYTNCMIK (UniProt Q8WYA0) | 0.00945 | 0.241
51 | HUWE1_Q7Z6Z7_4211_EYVHLVCQMR (UniProt Q7Z6Z7) | -0.0655 | 0.0277
52 | IDE_P14735_414_AEGPQEWVFQECK (UniProt P14735) | 0.0212 | 0.0564
53 | IDH3G_P51553_148_TSLDLYANVIHCK (UniProt P51553) | -0.0222 | 0.0812
54 | HUWE1_Q7Z6Z7_3372_ACSPCSSQSSSSGICTDFWDLLVK (UniProt Q7Z6Z7) | -0.0349 | -0.0747

Row | Target | probe-labelled cysteine peptide fold change (10 µM) | probe-labelled cysteine peptide fold change (50 µM)
55 | INO80_Q9ULG1_765_DVENELSDKIEILMYCQLTSR (UniProt Q9ULG1) | 0.0534 | 0.241
56 | IMPA2_O14732_90+107_CVLTHSPTWIIDPIDGTCNFVHR (UniProt O14732) | 0.0622 | -0.0767
57 | INO80_Q9ULG1_13_DDGGCTELAK (UniProt Q9ULG1) | -0.0437 | -0.281
58 | IFI16_Q16666_351+356_MDVVGTGQCHNIPCEEGDK (UniProt Q16666) | 0.083 | -0.317
59 | IGF2R_P11717_1516_SNEHDDCQVTNPSTGHLFDLSSLSGR (UniProt P11717) | 0.163 | -0.255
60 | ILF3_Q12906_278_RVLECLASGIVMPDGSGIYDPCEK (UniProt Q12906) | -0.186 | 0.0157
61 | HUWE1_Q7Z6Z7_3333_HASGGSTVHIHPQAAPVVCR (UniProt Q7Z6Z7) | 0.433 | 0.158
62 | IFT22_Q9H7X7_12_ILFVGPCESGK (UniProt Q9H7X7) | -0.0571 | -0.08
63 | IL17RA_Q96F46_185_NFLVPDCEHAR (UniProt Q96F46) | -0.00623 | 0.181
64 | HTT_P42858_664_FVLRDEATEPGDQENKPCR (UniProt P42858) | 0.0115 | -0.0955
65 | IGHMBP2_P38935_395_CILAGDHK (UniProt P38935) | 0.0395 | 0.12
66 | HYAL3_O43820_220_CHAATLAR (UniProt O43820) | -0.0987 | 0.0993
67 | HUWE1_Q7Z6Z7_19_KTPTEAPADCR (UniProt Q7Z6Z7) | 0.0548 | -0.157
68 | IFI16_Q16666_191_CQVTPR (UniProt Q16666) | -0.0377 | -0.11
69 | ILF3_Q12906_203_CLAALASLR (UniProt Q12906) | -0.0668 | 0.0994
70 | IGF2R_P11717_275+288_EEAGKLDFCDGHSPAVTITFVCPSER (UniProt P11717) | 0.00141 | -0.0605
71 | IKZF1_Q13422_254_EETNHSEMAEDLCK (UniProt Q13422) | 0.0376 | -0.0678
72 | IKBKG_Q9Y6K9_131_CQQQMAEDK (UniProt Q9Y6K9) | -0.164 | -0.134
73 | HYAL3_O43820_356_AAMACSHQR (UniProt O43820) | 0.0324 | 0.152
74 | INPP1_P49441_10_ELLCVSEK (UniProt P49441) | -0.0487 | 0.00513
75 | IGF2R_P11717_538_GCPEDAAVCAVDK (UniProt P11717) | 0.0423 | -0.0501
76 | IL6R_P08887_25_CPAQEVAR (UniProt P08887) | -0.0736 | -0.0328
77 | IGFBP2_P18065_227_TPCQQELDQVLER (UniProt P18065) | 0.118 | -0.0712
78 | IGF2R_P11717_1270_LSSDVCPTSDK (UniProt P11717) | -0.0313 | -0.108
79 | IARS_P41252_433_NNDLCYWVPELVR (UniProt P41252) | 0.379 | 0.188

From the supplement of paper PMC12067093, “Discovery and optimisation of a covalent ligand for TRIM25 and its application to targeted protein ubiquitination” (Chemical Science, 2025)
